# Data taken from PubChem BioAssay AID2685 (National Center for Advancing Translational Sciences (NCATS), 2010).
# This is one part of the list. The main result of the screen is listed elsewhere. These columns were measured beside it and carry no call. Most of these compounds were active or inconclusive in the main read-out, so they are no random draw. Potencies come from curve fits of mixed quality, noted in brackets.
# Experiment: qHTS Assay for Lipid Storage Modulators in Drosophila S3 Cells;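 for cell number change: cells counted by Cell Tracker Red CMTPX staining in the red channel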
# Conditions: BODIPY lipid droplet fluorescence, 18-24 h; for cell number change: measured here: cell count max response, cells fed with added oleic acid
# Procedure, shortened: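 Laser-scanning cytometry quantifies lipid droplet accumulation (500–530 nm total intensity; droplet/cell object ratio) in oleic acid-fed (400 uM added) Drosophila S3 cells treated with a concentration series. 20 uM Triacsin C defined 100% inhibition.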
# [1] = measured here: lipid fluorescence (Fed channel) AC50, cells fed with added oleic acid
# [2] = measured here: cell number channel AC50, cells fed with added oleic acid
SMILES,cell number change [%],AC50 [1],AC50 [2]
COc1ccc2nc(SC(C)C(=O)NC3CCCCC3)[nH]c2c1 (stereo unspecified),-1.25,"0.58 µM [falling, partial curve]",
O=C(CCN1C(=O)C2C3C=CC(C3)C2C1=O)Nc1ccc2ncccc2c1 (stereo unspecified),32.9,,"0.517 µM [rising, full curve, poor fit]"
O=C(COC(=O)c1ccc(S(=O)(=O)Nc2ccccc2)cc1)NCCC1=CCCCC1,-1.06,"0.58 µM [falling, single point]",
COCCNc1nc(C)c(C(C)=O)s1,-22.4,,
COC(=O)c1ccc(NC(=O)CSc2nccn2CCc2ccccc2)cc1,56,,"6.51 µM [rising, partial curve]"
COc1nonc1NCn1nc(C)cc1C,-10.1,"6.51 µM [falling, single point]",
O=C(CCCn1c(=O)c2ccccc2n(Cc2ccccc2)c1=O)NCc1ccco1,-19.3,"1.16 µM [rising, full curve]",
O=C1Nc2ccccc2C(=O)C1(Cl)Cc1ccccc1 (stereo unspecified),-18.4,"7.31 µM [falling, partial curve]",
CC(=O)Nc1ccc(NC(=O)c2ccc(C3SCC(=O)N3CCc3ccccc3)cc2)cc1 (stereo unspecified),4.89,"0.0206 µM [rising, full curve, poor fit]",
CN(Cc1nc2c(s1)CCCC2)C(=O)CCc1nnc(-c2ccc3c(c2)OCO3)o1,34.3,"0.517 µM [rising, full curve, poor fit]","0.461 µM [rising, full curve, poor fit]"
COc1ccc(S(=O)(=O)N2CCN(C(=O)c3ccco3)CC2)cc1C(C)(C)C,-4.99,,
O=C(COC(=O)c1cc([N+](=O)[O-])ccc1N1CCOCC1)c1ccc(F)cc1,31.5,"8.2 µM [rising, partial curve, poor fit]","0.259 µM [rising, full curve, poor fit]"
CC(C)N(C1=N/C(=C\c2ccco2)C(=O)N1c1ccccc1)C(C)C,6.31,,"0.13 µM [falling, full curve, poor fit]"
O=C(COc1ccccc1Br)Nc1ccc(S(=O)(=O)N2CCCC2)cc1,-30.1,"4.11 µM [falling, single point]",
O=C(CN1CCN(Cc2ccccc2)CC1)NNC(=O)c1ccccc1,-0.752,"1.46 µM [falling, partial curve, poor fit]",
N#Cc1cc(-c2ccccc2)oc1/N=C/c1ccccc1O,,"0.0731 µM [falling, full curve, poor fit]","0.103 µM [falling, full curve]"
O=C(NCCN1C(=O)C2C3C=CC(C3)C2C1=O)Nc1cccnc1 (stereo unspecified),8.78,"29.1 µM [falling, single point]",
COc1cccc(C2c3[nH]c4ccccc4c3CCN2Cc2ncc[nH]2)c1 (stereo unspecified),-26.1,"20.6 µM [falling, single point]",
Cc1ccc(N(CC(=O)NC(C)(C)C)C(=O)CCC(=O)Nc2nccs2)c(C)c1,-8.24,,

# Single records, as listed above:
# CC(=O)Nc1ccc(NC(=O)c2ccc(C3SCC(=O)N3CCc3ccccc3)cc2)cc1 (stereo unspecified) in the list: cell number change [%]: 4.89; AC50 [1]: 0.0206 µM [rising, full curve, poor fit]
# COc1ccc2nc(SC(C)C(=O)NC3CCCCC3)[nH]c2c1 (stereo unspecified) in the list: cell number change [%]: -1.25; AC50 [1]: 0.58 µM [falling, partial curve]

# Further entries follow:

SMILES,cell number change [%],AC50 [1],AC50 [2]
O=C(Nc1c(C(=O)N2CCOCC2)cnn1-c1ccccc1)c1ccc(F)cc1,-3.23,"0.13 µM [falling, full curve, poor fit]",
C=CCNC(=O)CN1CCN(Cc2ccc3c(c2)OCO3)CC1,0.777,"0.164 µM [rising, full curve, poor fit]",
CC(=O)N1CCN(c2ccc(NC(=O)c3ccc(Cl)cc3)cc2)CC1,12.6,,
COc1cc(OC)c(OC)cc1CNC(=O)c1cccc(S(=O)(=O)N2CCc3ccccc3C2)c1,130,,"5.8 µM [rising, partial curve]"
COC(=O)c1ccccc1N1C(=O)C2C(C1=O)C1C=CC2C12CC2 (stereo unspecified),-123,,"25.9 µM [falling, partial curve]"
Cc1cc(N2CCN(S(=O)(=O)c3ccccc3)CC2)nc2c(C)cccc12,44,,"35.5 µM [rising, single point]"
S=C1NC2(CCCCCC2)N=C1c1ccccc1,-21,"2.59 µM [falling, full curve, poor fit]",
C=CCN1CC2CC3(COc4cc(C)cc(C)c4)C=CC2(O3)C1=O (stereo unspecified),61.8,"6.51 µM [falling, single point]","13 µM [rising, partial curve]"
CCc1ccccc1Nc1nc(N)nc(COC(=O)CCC(=O)c2ccc(F)cc2)n1,-2.29,"6.51 µM [rising, partial curve, poor fit]",
CCOC(=O)C1(C/C(C)=N/NC(N)=O)CC(C)OC1=O (stereo unspecified),61.6,,"29.1 µM [rising, single point]"
COc1ccc(-c2cn(Cc3ccc4c(c3)C(=O)c3ccccc3C4=O)nn2)cc1,3.88,"0.092 µM [rising, full curve]",
OCCCNc1nccc(-c2cc(Nc3cccc(Cl)c3)ncn2)n1,-45.4,"6.51 µM [falling, partial curve]","5.8 µM [falling, full curve]"
COCCCNc1oc(-c2ccccc2Cl)nc1C#N,5.81,"0.0731 µM [rising, full curve]",
O=C(/C=C/c1ccc(Cl)cc1)N1CCN(c2ncccn2)CC1,37.2,,"11.6 µM [rising, single point]"
CC1C=CCC2C(=O)N(c3ccc(OC(=O)c4ccco4)cc3)C(=O)C12 (stereo unspecified),0.729,"4.11 µM [falling, single point]",
Clc1ccc(-c2c[n+](Cc3ccc(Cl)cc3Cl)c3n2CCCCC3)cc1,-57.9,"29.1 µM [falling, single point]","18.4 µM [falling, single point]"
Cc1cccn2c(=O)c3cc(C(=O)NCc4ccco4)c(=N)n(C4CCCCC4)c3nc12,21.8,,
COc1ccc(CCn2c(-c3ccco3)nc3ccccc3c2=O)cc1OC,,"0.58 µM [rising, full curve]","0.58 µM [rising, full curve]"
Cc1ccc(CC(=O)NC2CCN(Cc3ccccc3)CC2)cc1,4.95,"20.6 µM [rising, single point]",
